Values quoted from earlier work in patent US20030018027A1 (priority 2001, published 2003).

Legend:
kainate receptors = conditions: rat; cited from earlier work
[1] = system: ventromedial nucleus of hypothalamus (VMH); conditions: VMH stimulated by water absorbent polymers; cited from earlier work

For `NCCCC(=O)O` [GABA, γ-aminobutyric acid], the “inhibition of running activity induced by kainate” value (kainate receptors) is listed as “not inhibited” and the “inhibition of rat running activity caused by polymers” value [1] is listed as “inhibited”.
